According to US20160279215A1, “NOVEL PEPTIDES AND COMBINATION OF PEPTIDES FOR USE IN IMMUNOTHERAPY AGAINST VARIOUS TUMORS” (immatics biotechnologies GmbH, priority 2015, published 2016):
For part of these data: For expression read-outs the peptide stands for its source gene, whose mRNA was measured; the gene is not named for every peptide.

How the values were obtained:
[1] = tested on: source genes of the peptides (mRNA) in tumor and normal tissue; test: Expression profiling of source genes by Affymetrix microarrays (target coverage); design: species or system human; details: over-expression = more than 1.5-fold higher expression on tumor vs. normal tissue with highest expression, gene with minimal coverage decisive; for Target coverage for source genes of selected peptides, BPHI/PCA (%): BPHI/PCA (prostate cancer) samples; for Target coverage for source genes of selected peptides, CRC (%): CRC tumor samples; for Target coverage for source genes of selected peptides, GB (%): GB tumor samples; for Target coverage for source genes of selected peptides, GC (%): GC tumor samples; for Target coverage for source genes of selected peptides, HCC (%): HCC tumor samples; for Target coverage for source genes of selected peptides, NSCLC (%): NSCLC tumor samples; for Target coverage for source genes of selected peptides, PC (%): PC tumor samples; for Target coverage for source genes of selected peptides, RCC (%): RCC tumor samples
[2] = Identification and label-free relative LC-MS quantitation of HLA-presented peptides on tumor and normal tissue samples (XPRESIDENT presentation profiles); design: species or system human; details: for Entities of particular interest: entities where the peptide was over-presented on cancer samples compared to normal tissues; for Additional entities of particular interest (presentation of selected peptides across entities): tumor entities on which the HLA-presented peptide was found, entity abbreviations defined in the title of Table 4B

Row | Substance | Target coverage for source genes of selected peptides, BPHI/PCA (%) [1] | Target coverage for source genes of selected peptides, CRC (%) [1] | Target coverage for source genes of selected peptides, GB (%) [1] | Target coverage for source genes of selected peptides, GC (%) [1] | Target coverage for source genes of selected peptides, HCC (%) [1] | Target coverage for source genes of selected peptides, NSCLC (%) [1] | Target coverage for source genes of selected peptides, PC (%) [1] | Target coverage for source genes of selected peptides, RCC (%) [1] | Entities of particular interest [2] | Additional entities of particular interest (presentation of selected peptides across entities) [2]
1 | 52: peptide found in BRIP1 (gene looked up) (TIGIPFPNV; listed as Homo sapiens) [compound 52] | I (<19% over-expression = I) | I (<19% over-expression = I) | III (50-69% = III) | II (20-49% = II) | II (20-49% = II) | II (20-49% = II) | I (<19% over-expression = I) | I (<19% over-expression = I) | NSCLC, PC, OC | MEL, NHL
2 | 35: peptide found in KIF11 (gene looked up) (VIIKGLEEI; listed as Homo sapiens) [compound 35] | I (<19% over-expression = I) | II (20-49% = II) | I (<19% over-expression = I) | I (<19% over-expression = I) | I (<19% over-expression = I) | I (<19% over-expression = I) | I (<19% over-expression = I) | I (<19% over-expression = I) | GC, NSCLC, OSCAR | –
3 | 114: peptide found in NCAPH (gene looked up) (LLFPSDVQTL; listed as Homo sapiens) [compound 114] | I (<19% over-expression = I) | III (50-69% = III) | II (20-49% = II) | III (50-69% = III) | I (<19% over-expression = I) | III (50-69% = III) | I (<19% over-expression = I) | I (<19% over-expression = I) | PC, OSCAR | –
4 | 94: peptide found in ACKR2 (gene looked up) (YLDEVAFML; listed as Homo sapiens) [compound 94] | I (<19% over-expression = I) | I (<19% over-expression = I) | I (<19% over-expression = I) | I (<19% over-expression = I) | I (<19% over-expression = I) | I (<19% over-expression = I) | II (20-49% = II) | I (<19% over-expression = I) | NSCLC, HCC, OC | UBC, BRCA, GBC_CCC
5 | 48: peptide found in CHEK1 (gene looked up) (KISDFGLATV; listed as Homo sapiens) [compound 48] | I (<19% over-expression = I) | IV (>70% = IV) | IV (>70% = IV) | IV (>70% = IV) | II (20-49% = II) | IV (>70% = IV) | II (20-49% = II) | II (20-49% = II) | GB, NSCLC, PC, OSCAR | OC, MEL
6 | 122: peptide found in TRIP13 (gene looked up) (SIIDTELKV; listed as Homo sapiens) [compound 122] | I (<19% over-expression = I) | IV (>70% = IV) | IV (>70% = IV) | IV (>70% = IV) | II (20-49% = II) | IV (>70% = IV) | IV (>70% = IV) | II (20-49% = II) | – | AML
7 | 240: peptide found in KIF11 (gene looked up) (SVQENIQQK; listed as Homo sapiens) [compound 240] | I (<19% over-expression = I) | II (20-49% = II) | I (<19% over-expression = I) | I (<19% over-expression = I) | I (<19% over-expression = I) | I (<19% over-expression = I) | I (<19% over-expression = I) | I (<19% over-expression = I) | – | RCC, NHL
8 | 90: peptide found in HTR3A (gene looked up) (AILNVDEKNQV; listed as Homo sapiens) [compound 90] | I (<19% over-expression = I) | I (<19% over-expression = I) | I (<19% over-expression = I) | I (<19% over-expression = I) | I (<19% over-expression = I) | II (20-49% = II) | I (<19% over-expression = I) | I (<19% over-expression = I) | – | –
9 | 250: peptide found in CDK1 (gene looked up) (LMQDSRLYL; listed as Homo sapiens) [compound 250] | I (<19% over-expression = I) | IV (>70% = IV) | IV (>70% = IV) | IV (>70% = IV) | II (20-49% = II) | IV (>70% = IV) | III (50-69% = III) | II (20-49% = II) | – | –
10 | 42: peptide found in NCAPG (gene looked up) (KQMSISTGL; listed as Homo sapiens) [compound 42] | I (<19% over-expression = I) | IV (>70% = IV) | III (50-69% = III) | III (50-69% = III) | I (<19% over-expression = I) | III (50-69% = III) | I (<19% over-expression = I) | I (<19% over-expression = I) | – | –
